Results are given in words; binding and its absence hold for the method and conditions named. In cells and extracts the contact can be indirect. Some binding calls cover weakened binding; strength is not graded here.
Target: Peroxisome proliferator-activated receptor δ (PPARδ) (rat (endogenous in H9c2)) (UniProt Q62879)
Test: co-IP; nuclear protein fraction of H9c2 cells (supplemented with benzonase) precipitated with anti-PPARδ antibody, western blot with anti-Bcl6 antibody; cells pre-treated with or without L-165041 (10 µmol/L, 2 h), then with or without doxorubicin 0.1 µM or 1 µM (3 h), analysed after 24 h

Sequences of proteins named here, by UniProt entry; tags and fusion partners are left off. A change or cut given only in a name is not applied to a line headed by its entry.
UniProt Q62879: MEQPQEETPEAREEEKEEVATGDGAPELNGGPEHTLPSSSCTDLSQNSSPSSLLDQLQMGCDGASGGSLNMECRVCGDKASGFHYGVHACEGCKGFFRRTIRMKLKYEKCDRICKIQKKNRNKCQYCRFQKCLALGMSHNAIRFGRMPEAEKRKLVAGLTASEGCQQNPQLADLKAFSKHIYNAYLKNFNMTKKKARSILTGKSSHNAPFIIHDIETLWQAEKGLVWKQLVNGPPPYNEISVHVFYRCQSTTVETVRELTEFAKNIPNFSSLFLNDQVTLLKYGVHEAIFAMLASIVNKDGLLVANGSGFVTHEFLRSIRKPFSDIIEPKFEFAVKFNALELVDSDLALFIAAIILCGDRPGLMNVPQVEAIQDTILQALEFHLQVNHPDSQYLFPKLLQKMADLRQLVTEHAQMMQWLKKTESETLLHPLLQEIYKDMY

- binding: binds
Substance: B cell lymphoma-6 (Bcl6) (from UniProt F7FPB9 1-707)

— paper PMC3458009
